Source: PMC10721265
These are yes or no findings as the source states them, for the method shown. Binding seen in cells or lysates may run through a third protein. These calls come from enrichment with a bait or labelling near it, and not all partners need be listed.

T1: A1CF (mouse (endogenous in liver)) (UniProt Q5YD48)
T1 sequence: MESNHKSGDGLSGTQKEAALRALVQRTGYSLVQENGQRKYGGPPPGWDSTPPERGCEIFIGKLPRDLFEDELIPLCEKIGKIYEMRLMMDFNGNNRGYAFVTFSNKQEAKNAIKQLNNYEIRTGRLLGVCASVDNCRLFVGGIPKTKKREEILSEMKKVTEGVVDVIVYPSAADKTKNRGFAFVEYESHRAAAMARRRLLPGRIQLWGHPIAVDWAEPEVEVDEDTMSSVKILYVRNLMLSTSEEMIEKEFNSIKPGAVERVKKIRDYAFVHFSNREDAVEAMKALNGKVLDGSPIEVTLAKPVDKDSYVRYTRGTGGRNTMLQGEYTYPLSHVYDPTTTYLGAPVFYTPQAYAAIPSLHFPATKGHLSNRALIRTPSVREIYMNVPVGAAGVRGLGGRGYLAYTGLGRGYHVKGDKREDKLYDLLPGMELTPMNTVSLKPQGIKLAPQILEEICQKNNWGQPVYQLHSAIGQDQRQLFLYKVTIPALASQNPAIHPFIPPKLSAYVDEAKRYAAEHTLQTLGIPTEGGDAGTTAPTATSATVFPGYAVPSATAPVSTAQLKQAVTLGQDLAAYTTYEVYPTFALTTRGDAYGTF


Target: T1, A1CF (mouse (endogenous in liver))
Experiment: affinity purification with mass spectrometry; endogenous A1CF immunoprecipitated from liver lysates of mice fed a normal diet (RIPA buffer, washes with RIPA + 500 mM NaCl), IgG as control; label-free LC-MS/MS

Binder | binding
TRIM21 E3 ubiquitin ligase (protein, UniProt Q62191 1-470) MSPSTTSKMSLEKMWEEVTCSICLDPMVEPMSIECGHCFCKECIFEVGKNGGSSCPECRQQFLLRNLRPNRHIANMVENLKQIAQNTKKSTQETHCMKHGEKLHLFCEEDGQALCWVCAQSGKHRDHTRVPIEEAAKVYQEKIHVVLEKLRKGKELAEKMEMDLTMQRTDWKRNIDTQKSRIHAEFALQNSLLAQEEQRQLQRLEKDQREYLRLLGKKEAELAEKNQALQELISELERRIRGSELELLQEVRIILERSGSWNLDTLDIDAPDLTSTCPVPGRKKMLRTCWVHITLDRNTANSWLIISKDRRQVRMGDTHQNVSDNKERFSNYPMVLGAQRFSSGKMYWEVDVTQKEAWDLGVCRDSVQRKGQFSLSPENGFWTIWLWQDSYEAGTSPQTTLHIQVPPCQIGIFVDYEAGVVSFYNITDHGSLIYTFSECVFAGPLRPFFNVGFNYSGGNAAPLKLCPLKM | binds
RBM47 (protein, UniProt Q91WT8 1-590) MTAEDSATAMNSDPTVGSSTKVPEGVAGAPNEAALLALIERTGYTMVQENGQRKYGGPPPGWEGPHPQRGCEVFVGKIPRDVYEDELVPVFETVGRIYELRLMMDFDGKNRGYAFVMYCHKHEAKRAVRELNNYEIRPGRLLGVCCSVDNCRLFIGGIPKMKKRGEILEEIAKVTEGVLNVIVYASAADKMKNRGFAFVEYESHRAAAMARRKLMPGRIQLWGHQIAVDWAEPEIDVDEDVMQTVKILYVRNLMIETTEETIKKSFGQFNPGCVERVKKIRDYAFVHFTSREDAVHAMNNLNGTELEGSCLEVTLAKPVDKEQYSRYQKAAKGGGGSAEAVAQQPSYVYSCDPYTLAYYGYPYNALIGPNRDYFVKTGSIRGRGRGAAGNRTPGPRGSYLGGYSAGRGIYSRYHEGKGKQQEKGYELVPNLEISPVNPVAIKPGTVAIPAIGAQYSMFQAAPAPKIIEDGKIHTMEHMISPIAVQPDPATAAAAAAAAAAAAVIPAVSTPPPFQGRPITPVYTVAPNVQRIPTAGIYGASYVPFAAPATATIATLQKNAAAAVYGGYAGYIPQAFPAALQVPIHDVYQTY | binds
